Measurements published in paper PMC6179307 (2018).
No constants are given. Whether binding was seen depends on the method and setting. In cells and extracts the contact can be indirect. Some binding calls cover weakened binding; strength is not graded here.

Chains of the proteins cited; added tags and fusions are not shown.
UniProt Q9XTT9: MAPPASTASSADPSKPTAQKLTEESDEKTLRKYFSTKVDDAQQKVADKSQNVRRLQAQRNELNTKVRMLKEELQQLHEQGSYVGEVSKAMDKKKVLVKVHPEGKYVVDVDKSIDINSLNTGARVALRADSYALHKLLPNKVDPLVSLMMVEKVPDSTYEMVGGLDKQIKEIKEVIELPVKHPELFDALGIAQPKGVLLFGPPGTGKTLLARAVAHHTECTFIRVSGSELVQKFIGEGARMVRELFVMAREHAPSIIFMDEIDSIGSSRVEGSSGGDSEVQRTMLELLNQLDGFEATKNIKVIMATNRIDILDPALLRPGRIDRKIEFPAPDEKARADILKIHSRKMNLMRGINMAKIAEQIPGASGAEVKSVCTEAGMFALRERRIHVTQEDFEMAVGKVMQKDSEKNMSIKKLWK

Target: T1, ELT-2::VN173 (C. elegans) (UniProt Q10655)
T1 sequence: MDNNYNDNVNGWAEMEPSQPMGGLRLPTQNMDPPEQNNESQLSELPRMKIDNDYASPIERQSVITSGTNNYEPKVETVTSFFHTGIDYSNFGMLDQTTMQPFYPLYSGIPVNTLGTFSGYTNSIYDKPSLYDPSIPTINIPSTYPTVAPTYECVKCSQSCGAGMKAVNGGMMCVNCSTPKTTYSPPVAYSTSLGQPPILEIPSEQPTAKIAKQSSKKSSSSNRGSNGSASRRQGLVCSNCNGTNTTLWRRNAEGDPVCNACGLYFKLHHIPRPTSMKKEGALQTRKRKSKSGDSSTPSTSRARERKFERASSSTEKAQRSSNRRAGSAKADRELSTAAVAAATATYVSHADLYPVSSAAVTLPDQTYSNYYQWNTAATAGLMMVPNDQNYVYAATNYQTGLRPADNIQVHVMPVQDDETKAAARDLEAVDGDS
Experiment: split reporter; BiFC in living transgenic C. elegans; VN173 and VC155 fusions under Phsp-16.41; heat shock 3 h at 33°C, recovery 12 hours at 20°C; fluorescence stereomicroscope, Copas Biosort for quantification; also after RNAi of selected proteasome genes

binding: binds
Substance: RPT-6::VC155 (from UniProt Q9XTT9 1-416)
